Among the data in PubChem BioAssay AID248 (DTP/NCI, 2004) are survivor count values, retold here.

Each structure is given as a SMILES string. The list shows only some results of the screen, not a fair sample: it gathers tests that were run many times, whatever their T/C, doses with no T/C, and many T/C values between a quarter and a half above the control. Further doses and runs are listed elsewhere. T/C is the treated group as % of the vehicle group. Some doses have a count of surviving animals in place of a T/C: the source files T/C as zero there, which appears to mark a toxic dose or a test without result, not a measured value. Some doses without a T/C left all or most animals alive at the check, yet need not have been tolerated: the source hardly ever lists a survival T/C far under the control, and the zero likely stands for such cases as well. Survivors were counted at the toxicity check, usually on the fifth day, unless a day is given; later deaths do not show. Schedules are NCI's codes, taken here to give the interval after Q, in days (D) or hours (H), and the number of doses after X. Some schedule codes hold Z or #, which are not explained here.

The subject of the experiment is L1210 leukemia ip in BDF1 mice, survival T/C. Nature of the experiment: NCI In Vivo Anticancer Drug Screen. Data for tumor model L1210 Leukemia (intraperitoneal) in B6D2F1 (BDF1) mice. The note with it: T/C endpoint: mean survival time, higher T/C = longer survival.
The mark [1] stands for this setting: dose: 400.0 mg/kg/injection, schedule: Q04DX003 (ip), vehicle: saline.
[2] abbreviates: dose: 100.0 mg/kg/injection, schedule: Q01DX009 (ip), vehicle: saline.
[3] abbreviates: dose: 75.0 mg/kg/injection, schedule: Q01DX001 (ip), vehicle: saline.
The mark [4] stands for this setting: dose: 150.0 mg/kg/injection, schedule: Q01DX001 (ip), vehicle: saline.
The mark [5] stands for this setting: dose: 300.0 mg/kg/injection, schedule: Q01DX001 (ip), vehicle: saline.
Where [6] appears, read: dose: 50.0 mg/kg/injection, schedule: Q01DX009 (ip), vehicle: saline with Tween-80.
[7] abbreviates: dose: 100.0 mg/kg/injection, schedule: Q01DX009 (ip), vehicle: saline with Tween-80.
[8] abbreviates: dose: 100.0 mg/kg/injection, schedule: Q04DX002 (ip), vehicle: saline with Tween-80.
The mark [9] stands for this setting: dose: 200.0 mg/kg/injection, schedule: Q01DX009 (ip), vehicle: saline with Tween-80.
The mark [10] stands for this setting: dose: 200.0 mg/kg/injection, schedule: Q04DX002 (ip), vehicle: saline with Tween-80.
[11] abbreviates: dose: 400.0 mg/kg/injection, schedule: Q04DX002 (ip), vehicle: saline with Tween-80.
Where [12] appears, read: dose: 400.0 mg/kg/injection, schedule: Q01DX009 (ip), vehicle: carboxymethylcellulose (CMC).
The mark [13] stands for this setting: dose: 200.0 mg/kg/injection, schedule: Q04DX003 (ip), vehicle: saline.
Where [14] appears, read: dose: 400.0 mg/kg/injection, schedule: Q01DX009 (ip), vehicle: Klucel (hydroxypropylcellulose) (HPC).
The mark [15] stands for this setting: dose: 400.0 mg/kg/injection, schedule: Q01DX009 (ip), vehicle: saline with Tween-80.

On to `O=C(COc1cccc(Cl)c1)NCc1ccc(NC(=O)CBr)cc1`, for which, under “dose: 100.0 mg/kg/injection, schedule: Q01DX001 (ip), vehicle: gum acacia”, the survivor count is recorded as 6 of 6.

As for `O/N=C/c1c(O)cccc1Cl`, the survivor count (dose: 300.0 mg/kg/injection, schedule: Q01DX001 (ip), vehicle: acetone) is recorded as 1 of 6.

Consider `Cc1ccc[n+]([O-])c1Cl`, for which the survivor count under setting [1] is on record as 3 of 6.

In the case of `CCCCCCCCCCCCCCCCCC1=NCCN1CCN`, the survivor count is, setting by setting: under setting [2], 3 of 6; (dose: 200.0 mg/kg/injection, schedule: Q01DX001 (ip), vehicle: acetone) 0 of 6; (dose: 400.0 mg/kg/injection, schedule: Q01DX001 (ip), vehicle: acetone) 0 of 6.

With `CCOP(=O)(Oc1ccc([N+](=O)[O-])cc1)c1cccc(Br)c1` (stereo not drawn), the survivor count runs as follows: under setting [3], 0 of 6; under setting [4], 0 of 6; under setting [5], 0 of 6.

Turning to `CS(C)=O`, the survivor count runs as follows: (dose: 0.8 grams/kg/injection, schedule: Q03HX008 (ip), vehicle: saline) 2 of 10; (dose: 0.8 grams/kg/injection, schedule: Q03HX016 (ip), vehicle: saline) 3 of 10; (dose: 0.8 grams/kg/injection, schedule: Q03HX024 (ip), vehicle: saline) 6 of 10; (dose: 1000.0 mg/kg/injection, schedule: Q01DX Z (ip), vehicle: other) 6 of 6; (dose: 2000.0 mg/kg/injection, schedule: Q01DX Z (ip), vehicle: other) 6 of 6; (dose: 3.1 grams/kg/injection, schedule: Q03HX016 (ip), vehicle: saline) 10 of 10. The survivor count (dose: 6.3 grams/kg/injection, schedule: Q03HX008 (ip), vehicle: saline) is recorded as 0 of 10; the survivor count (dose: 6.3 grams/kg/injection, schedule: Q03HX016 (ip), vehicle: saline) is 0 of 10; the survivor count (dose: 6.3 grams/kg/injection, schedule: Q03HX024 (ip), vehicle: saline) is listed as 0 of 10.

For the compound `CCCCCCCCCCC[n+]1ccc(C#N)cc1`, the survivor count reads like this: under setting [3], 0 of 6; under setting [4], 0 of 6; under setting [5], 0 of 6.

For the compound `N#C[CH2][Sn]([I])([c]1ccccc1)[c]1ccccc1`, the survivor count (dose: 6.25 mg/kg/injection, schedule: Q01DX009 (ip), vehicle: saline with Tween-80) is given as 0 of 3; the survivor count (dose: 12.5 mg/kg/injection, schedule: Q01DX009 (ip), vehicle: saline with Tween-80) is listed as 0 of 3; the survivor count (dose: 25.0 mg/kg/injection, schedule: Q01DX009 (ip), vehicle: saline with Tween-80) is recorded as 0 of 3; the survivor count under setting [6] was 0 of 3; the survivor count under setting [7] is reported as 0 of 3; the survivor count under setting [8] is 0 of 3. Moreover, the survivor count is recorded as 0 of 3 under setting [9], 0 of 3 under setting [10] and 0 of 3 under setting [11].

In the case of `COc1ccc(OCC(=O)N2CCCCC2)cc1`, under setting [12], the survivor count is given as 0 of 6.

Turning to `CN1CCC(O)(c2ccccc2)C(C(=O)c2ccccc2)C1` (stereo not drawn), the survivor count (dose: 400.0 mg/kg/injection, schedule: Q01DX001 (ip), vehicle: saline) is on record as 1 of 6.

On to `CCCCCCCCCCCCCCCCCC[N+](C)(C)c1nc(Cl)nc(Cl)n1`, for which the survivor count by setting is: (dose: 150.0 mg/kg/injection, schedule: Q04DX003 (ip), vehicle: Klucel (hydroxypropylcellulose) (HPC)) 0 of 6; (dose: 300.0 mg/kg/injection, schedule: Q04DX003 (ip), vehicle: Klucel (hydroxypropylcellulose) (HPC)) 0 of 6; (dose: 400.0 mg/kg/injection, schedule: Q01DX001 (ip), vehicle: carboxymethylcellulose (CMC)) 1 of 4.

Consider `C[CH2][Ge]1([CH2]C)[CH2]CC2(C[CH2]1)CN(CCCN(C)C)CN2`, for which the survivor count was 0 of 3 (dose: 200.0 mg/kg/injection, schedule: Q04DX002 (ip), vehicle: saline) and 0 of 3 (dose: 400.0 mg/kg/injection, schedule: Q04DX002 (ip), vehicle: saline).

As for `CCC(SC(C)=O)C(=O)O` (stereo not drawn), the survivor count under setting [1] was 1 of 6.

On to `C=CS(=O)Cc1ccccc1` (stereo not drawn), for which the survivor count runs as follows: under setting [8], 1 of 3; under setting [10], 0 of 3; under setting [11], 0 of 3.

As for `CNC(=O)NC1CCCCC1`, the survivor count under setting [12] was 3 of 3.

In the case of `CCN(CC)CCOC(=O)/C=C/c1ccc([N+](=O)[O-])o1`, under “dose: 170.0 mg/kg/injection, schedule: Q01DX Z (ip), vehicle: saline”, the survivor count was 3 of 6.

Consider `CC(C)(C)C1=C[P+](c2ccccc2)(c2ccccc2)C(C(C)(C)C)=C[P+]1(c1ccccc1)c1ccccc1`, for which the survivor count is reported as 0 of 6 (dose: 100.0 mg/kg/injection, schedule: Q04DX003 (ip), vehicle: saline); 0 of 6 under setting [13]; 0 of 6 under setting [1].

With `OC(c1ccccc1)(c1ccccc1)C(F)(F)C(F)(F)C(F)(F)F`, the survivor count (dose: 500.0 mg/kg/injection, schedule: Q01DX Z (ip), vehicle: methylcellulose (MC)) is recorded as 6 of 6.

Regarding `Cc1cc[n+]([O-])cc1C`, the survivor count reads like this: under setting [14], 2 of 3; (dose: 400.0 mg/kg/injection, schedule: Q04DX002 (ip), vehicle: Klucel (hydroxypropylcellulose) (HPC)) 3 of 3.

For `O=C(Nc1ccc(Cl)c(Cl)c1)Nc1ccc(Oc2ccc(Cl)cc2Cl)cc1S(=O)(=O)O`, where the note is “dose: 400.0 mg/kg/injection, schedule: Q04DX003 (ip), vehicle: alcohol”, the survivor count is 4 of 6.

Regarding `CC(=O)OCC1OC(OC(C)C)[CH]([Hg][S]Cc2ccccc2)C(OC(C)=O)C1OC(C)=O` (stereo not drawn), the survivor count (dose: 16.0 mg/kg/injection, schedule: Q01DX015 (ip), vehicle: carboxymethylcellulose (CMC)) was 4 of 6.

In the case of `CC(C)C(C#N)(CCCCN1CCCCC1)c1cccc2ccccc12` (stereo not drawn), the survivor count (dose: 400.0 mg/kg/injection, schedule: Q04DX003 (ip), vehicle: saline with Tween-80) is listed as 1 of 6.

On to `Clc1c(CBr)ccc(CBr)c1Cl`, for which the survivor count (dose: 100.0 mg/kg/injection, schedule: Q04DX003 (ip), vehicle: Klucel (hydroxypropylcellulose) (HPC)) is recorded as 0 of 6; the survivor count (dose: 200.0 mg/kg/injection, schedule: Q04DX003 (ip), vehicle: Klucel (hydroxypropylcellulose) (HPC)) is on record as 2 of 6; the survivor count (dose: 400.0 mg/kg/injection, schedule: Q04DX003 (ip), vehicle: Klucel (hydroxypropylcellulose) (HPC)) is recorded as 0 of 6.

Consider `CC(CC(C#CC(CC(C)CC(C)(C)C)N(C)C)N(C)C)CC(C)(C)C` (stereo not drawn), for which the survivor count under setting [14] is on record as 3 of 3.

In the case of `CC(=O)c1c(O)c(Br)c(C)oc1=O` (tested in a mixture with another compound), the survivor count runs as follows: under setting [6], 2 of 3; under setting [7], 3 of 3; under setting [9], 0 of 3.

With `Br/C=C(\Br)C[N+]12CN3CN(CN(C3)C1)C2`, the survivor count under setting [9] is reported as 6 of 6 and the survivor count under setting [15] was 0 of 6.

With `O=C(Nc1cccc(C(=O)O)c1)Nc1ccc(Cl)c(C(F)(F)F)c1`, under setting [15], the survivor count is given as 6 of 6.

With `CCC[As](=O)(O)CCC`, the survivor count by setting is: under setting [2], 3 of 6; under setting [13], 2 of 6; under setting [1], 0 of 6.

For `CCc1c(C)[nH]c2c1C(=O)CCC2`, the survivor count runs as follows: under setting [3], 0 of 6; under setting [4], 0 of 6; under setting [5], 0 of 6.
